Data taken from PubChem BioAssay AID485353 (National Center for Advancing Translational Sciences (NCATS), 2010).
Hit rate of the full screen: of about 330,000 compounds, about 610 (0.18%) were called active. The inconclusive results got no clear call from the source; some entries with a clear call stand among them for comparison. The call rests on the fitted dose curve. Potencies of inconclusive entries are doubtful fits and often do not repeat. The source holds several records for some structures; these can differ, active in one and inactive in another.

Experiment: qHTS of Yeast-based Assay for SARS-CoV PLP; further: nearly all actives have a fitted effect of over 55% in size
Details: S. cerevisiae expressing SARS-CoV PLpro; Potency: growth rescue; series mostly up to 32.9 µM
Potency means the concentration at half of the fitted maximal effect.

SMILES | Potency
CCC(C)c1ccc(NC(=S)NN2CCOCC2)cc1 (stereo unspecified) | inconclusive: 8.91 µM [activator, partial curve]
Cc1noc(NS(=O)(=O)c2ccc(N/C=C/C(=O)c3ccc(F)cc3)cc2)c1C | inactive
Cc1oc(CC(C)C)cc1C(=O)Nc1ccc(C(=O)O)cc1 | inconclusive: 20 µM [activator, single point]
CCN1CCCc2cc(CN(CCN3CCOCC3)C(=S)Nc3cccc(Cl)c3)ccc21 | inactive
COc1ccccc1N1CCN(C(=O)c2cc3cc(C)ccc3[nH]2)CC1 | inconclusive: 3.98 µM [activator, single point]
O=C(CS(=O)(=O)c1cn(CC(=O)N2CCOCC2)c2ccccc12)Nc1ccccc1F | inconclusive: 1 µM [activator, full curve]
CCN1C(=O)/C(=C/c2ccc(C)s2)NC1=S | inconclusive: 11.2 µM [activator, single point]
Cc1ccc(C(O)(C(=O)NNc2ccc3ccccc3n2)c2ccc(C)cc2)cc1 | inconclusive: 20 µM [activator, single point]
C=CCn1c(C23CC4CC(CC(C4)C2)C3)n[nH]c1=S | active: 11.2 µM
CC(C)(C)c1ccc(C(=O)Nc2ccc(C(=O)N3CCCC3)cc2)cc1 | inconclusive: 3.16 µM [activator, single point]
CCOC(=O)N1CCC(NC(=O)CN2C(=O)C(CC)Oc3ccc(C)cc32)CC1 (stereo unspecified) | inconclusive: 3.98 µM [activator, single point]
Cc1ccc(NC(=S)Nc2ccc(C(C)C)cc2)cc1S(=O)(=O)N1CCCCCC1 | inconclusive: 14.1 µM [activator, single point]
Cc1cc(C)nc(Nc2ccc(O)cc2)n1 | inactive
CCN(CC(=O)Nc1ccc(NC(C)=O)cc1)C(=O)C12CC3CC(CC(Cl)(C3)C1)C2 | inconclusive: 11.2 µM [activator, single point]
COc1ccc(C2/C=C\CN(CC(C)(C)C)CC(=O)N2Cc2ccc(F)cc2)cc1 (stereo unspecified) | inactive
COc1ccc2oc(=O)c(C(=O)Oc3ccc(NC(C)=O)cc3)cc2c1 | inactive
O=C(c1ccc(CS(=O)c2ccccc2Cl)o1)N1CCCCCC1 (stereo unspecified) | inconclusive: 3.16 µM [activator, single point]
C=C(C)Cn1c(SCC(=O)N/N=C/c2c(O)ccc3ccccc23)nc2ccccc2c1=O | active: 10 µM
COc1cc(/C=N/NC(=O)c2cc(-c3ccccc3OC(C)C)nc3ccccc23)ccc1O | inactive
CCC1=NN(C(=O)C(=O)Nc2ccc(Br)cc2)C(O)(C(F)(F)F)C1 (stereo unspecified) | inconclusive: 14.1 µM [activator, partial curve]
COCCNC(=O)CSC1=N/C(=C/c2ccc(Cl)c(Cl)c2)C(=O)N1c1ccccc1F | inconclusive: 1 µM [activator, full curve, poor fit]
COc1ccc(-c2onc(C)c2-c2cnn(-c3ccccc3)c2)c(O)c1 | inactive
O=C1CCC/C=C\C[C@H](CC(=O)N(CCO)Cc2ccccc2)C(=O)N2CCC[C@@H]2CO1 | inactive
COc1ccc(Nc2ccc(Cl)nn2)cc1 | inactive
COc1cccc(CNc2ccc(S(N)(=O)=O)cc2)c1OC | inconclusive: 3.98 µM [activator, single point]
CCOc1ccc(C(=O)Nc2nnn(CC)n2)cc1 | inconclusive: 3.16 µM [activator, single point]

Rewritten as comma-separated lines: part of the list above
SMILES,Potency
O=C1CCC/C=C\C[C@H](CC(=O)N(CCO)Cc2ccccc2)C(=O)N2CCC[C@@H]2CO1,inactive
COc1ccc(Nc2ccc(Cl)nn2)cc1,inactive

Continued:

SMILES | Potency
Cc1nn(C(=O)N(C)C)c(C)c1CN1C(=O)c2ccccc2C1=O | inconclusive: 1 µM [activator, partial curve]
Cc1nc(-n2[nH]c3c(c2=O)CCCC3)[nH]c(=O)c1Cc1ccccc1 | inactive
CCCN(C(=O)CSCc1ccccc1C)c1c(N)n(Cc2ccccc2)c(=O)[nH]c1=O | inactive
Cc1ccc(NC(=S)N(Cc2cccs2)Cc2cc3cccc(C)c3[nH]c2=O)cc1 | inactive
Cc1ccccc1C(=O)N1CCC(C(=O)Nc2cccc(S(=O)(=O)N3CCCCC3)c2)CC1 | inactive
CSc1nnc(COc2ccc(C)cc2)n1N | inconclusive: 3.98 µM [activator, single point]
COc1ccccc1Nc1nc(N)nc(CSC(=S)N2CCCCC2C)n1 (stereo unspecified) | active: 12.6 µM
Cc1ccc(C)c(NC(=S)N2CCCCCC2)c1 | inconclusive: 20 µM [activator, single point]
CN(C)c1ccc2c(c1)N=C(c1ccco1)OP2(=S)N1CCOCC1 (stereo unspecified) | inconclusive: 11.2 µM [activator, single point]
O=C(NC(=S)NC1CCS(=O)(=O)C1)c1cccs1 (stereo unspecified) | inactive
CC(C)N1CCC(N2CCN(Cc3ccc(-c4ccc(Cl)cc4)o3)CC2CCO)CC1 (stereo unspecified) | inactive
CCOc1cccc(/C=N/NC(=O)C2CCCC2)c1O | inconclusive: 17.8 µM [activator, single point]
COC(=O)CSC1=NS(=O)(=O)c2ccccc21 | inactive
Cc1cccc(-c2ccc3ncnc(NCc4cccnc4)c3c2)c1 | active: 6.31 µM
O=C(NC(C(=O)N/N=C/c1c2ccccc2cc2ccccc12)c1n[nH]c(=O)c2ccccc12)c1ccccc1 (stereo unspecified) | inconclusive: 20 µM [activator, single point]
O=C(Nc1ccc(-n2nncc2-c2ccco2)cc1)c1cc2ccccc2oc1=O | inactive
CC12CC3CC(C)(C1)CC(C(=O)NC(=S)N1CCOCC1)(C3)C2 | inconclusive: 20 µM [activator, single point]
CCOc1ccccc1NC(=S)N1CCCCCC1 | inconclusive: 0.447 µM [activator, full curve]
O=c1cccc2n1CC1CC2CN(Cc2ccc3c(c2)OCO3)C1 (stereo unspecified) | inconclusive: 14.1 µM [activator, single point]
O=C(CCc1ccccc1)NNC(=O)Nc1ccc(Cl)cc1 | inconclusive: 22.4 µM [activator, single point]
COc1ccc(C(CCNCc2ccccc2F)c2ccc(F)cc2)cc1 (stereo unspecified) | inconclusive: 3.98 µM [activator, single point]
CCOc1ccc(-n2c(Cc3cc(=O)[nH]c(=O)[nH]3)nnc2SC(C)C)cc1 | inactive
COC(=O)C1=C(C)N(CC2CC2)C(=NCc2cccc(C(F)(F)F)c2)N[C@H]1c1ccccc1 | inconclusive: 1 µM [activator, partial curve]
CC1CN=C(NC(=O)c2cccc([N+](=O)[O-])c2)S1 (stereo unspecified) | inactive
C=CCN(CC=C)C(=S)Nc1ccccc1 | inconclusive: 4.47 µM [activator, single point]
Nc1c(C(=O)N/N=C/c2ccccc2)cnn1-c1ccccc1 | inactive

In the list so far, these have a CF3 group.
SMILES | Potency
CCC1=NN(C(=O)C(=O)Nc2ccc(Br)cc2)C(O)(C(F)(F)F)C1 (stereo unspecified) | inconclusive: 14.1 µM [activator, partial curve]
COC(=O)C1=C(C)N(CC2CC2)C(=NCc2cccc(C(F)(F)F)c2)N[C@H]1c1ccccc1 | inconclusive: 1 µM [activator, partial curve]

The listing continues.

SMILES | Potency
O=C1CN(C(=O)CNCc2ccccc2)c2ccccc2N1 | inactive
CCOC(=O)C(CC)/C(C)=N\NC(=O)c1ccccc1O (stereo unspecified) | active: 6.31 µM
Cc1ccc(S(=O)(=O)CCC(=O)OCC(=O)c2cc(C)n(C)c2C)cc1 | inactive
COc1cc(/C=N/NC(=S)NCc2ccco2)cc(OC)c1OC | inconclusive: 22.4 µM [activator, partial curve]
OCCN(/C=N/c1nc(-c2ccc(Br)cc2)cs1)CCO | inactive
CCn1c2ccc(C)cc2c2n[nH]c(=S)nc21 | inconclusive: 12.6 µM [activator, single point]
CC(C)Cn1c2c(c(O)c(C(=O)Nn3c(Cc4ccccc4)nc4ccccc4c3=O)c1=O)CCCC2 | inconclusive: 2.24 µM [activator, full curve]
CN(C)c1ccc(N/C=C/C(=O)c2ccccc2)cc1 | inactive
O=C(CSC1=NNC(c2ccccn2)S1)Nc1ccccc1 (stereo unspecified) | inconclusive: 3.55 µM [activator, partial curve]
CC1CCc2[nH]c3ccc(C(=O)N(C)CC(=O)Nc4ccccc4C(F)(F)F)cc3c2C1 (stereo unspecified) | inconclusive: 11.2 µM [activator, single point]
Cc1cc(OC(C)C(=O)NCc2ccncc2)c2c(C)c(C)c(=O)oc2c1 (stereo unspecified) | inconclusive: 2.82 µM [activator, single point]
Cc1ccc(C)c(OCCn2cc(C(=O)O)c3ccccc32)c1 | inactive
Cc1ccc(/C=C2/C(=O)NC(=O)N(CCc3ccc(F)cc3)C2=O)o1 | inconclusive: 4.47 µM [activator, single point]
CC(C)c1ccc(NC(=S)NN2CCN(C)CC2)cc1 | inactive
C/C(=N\NC(N)=S)C1(C)CCCCC1 | active: 17.8 µM
COc1ccc(NC(=O)c2cc(-c3cccs3)on2)c(OC)c1 | inactive
Cc1ccccc1OCCn1c(=S)[nH]c2ccccc21 | inconclusive: 12.6 µM [activator, single point]
Cc1cc(C)cc(C(=O)NCC(=O)OCC(=O)N2c3ccccc3NC(=O)C2(C)C)c1 | inconclusive: 7.94 µM [activator, partial curve]
CCCCNC(=O)CCCCCNS(=O)(=O)c1ccc(OC)cc1 | inconclusive: 20 µM [activator, single point]
CCOC(=O)c1c(-c2ccco2)csc1NC(=O)CSc1nnc(N)s1 | inconclusive: 20 µM [activator, single point]
CC12CCC(=O)N1C(C(=O)Nc1cc(C(F)(F)F)ccc1N1CCCCC1)CS2 (stereo unspecified) | inactive
CC1=NN(c2ccccc2)C(=O)C1C(=O)c1ccccc1 (stereo unspecified) | inconclusive: 22.4 µM [activator, single point]
Cc1ccc2nc(C)cc(C(=O)OCC(=O)c3ccc(Cl)c([N+](=O)[O-])c3)c2c1 | inconclusive: 4.47 µM [activator, single point]
O=C(COC(=O)c1ccccc1C(=O)c1ccc(Cl)c([N+](=O)[O-])c1)NC1CCCCCC1 | active: 3.55 µM
